Measured values taken from the supplement of paper PMC10849652.
This is one part of the list.

Chains of the proteins cited; added tags and fusions are not shown. Lines headed by an entry give the natural chain unless they say otherwise; changes in a name come on top.
UniProt P33947: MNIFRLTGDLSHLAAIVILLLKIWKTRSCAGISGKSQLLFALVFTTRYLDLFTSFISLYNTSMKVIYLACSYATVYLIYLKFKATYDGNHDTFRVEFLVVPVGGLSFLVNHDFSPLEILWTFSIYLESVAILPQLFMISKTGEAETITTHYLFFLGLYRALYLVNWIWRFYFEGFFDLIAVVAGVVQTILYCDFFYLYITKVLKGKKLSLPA
UniProt Q9Y6Y0: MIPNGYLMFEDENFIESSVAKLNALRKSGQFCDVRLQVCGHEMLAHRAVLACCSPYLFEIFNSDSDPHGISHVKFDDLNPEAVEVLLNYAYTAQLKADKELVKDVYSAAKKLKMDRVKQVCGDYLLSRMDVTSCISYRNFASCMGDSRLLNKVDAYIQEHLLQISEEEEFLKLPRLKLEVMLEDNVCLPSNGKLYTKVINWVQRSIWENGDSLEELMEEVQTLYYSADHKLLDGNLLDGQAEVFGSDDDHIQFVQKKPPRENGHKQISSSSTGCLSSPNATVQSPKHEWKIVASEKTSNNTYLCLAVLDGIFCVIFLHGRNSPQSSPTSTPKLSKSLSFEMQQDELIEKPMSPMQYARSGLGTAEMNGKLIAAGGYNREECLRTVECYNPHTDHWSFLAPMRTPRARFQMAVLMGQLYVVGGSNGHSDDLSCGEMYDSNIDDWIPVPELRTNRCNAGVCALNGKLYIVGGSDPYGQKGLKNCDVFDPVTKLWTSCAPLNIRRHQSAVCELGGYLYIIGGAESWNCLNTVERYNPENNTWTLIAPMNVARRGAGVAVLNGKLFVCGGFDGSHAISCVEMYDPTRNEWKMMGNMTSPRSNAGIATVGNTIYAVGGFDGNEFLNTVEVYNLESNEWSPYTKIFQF
UniProt Q86U28: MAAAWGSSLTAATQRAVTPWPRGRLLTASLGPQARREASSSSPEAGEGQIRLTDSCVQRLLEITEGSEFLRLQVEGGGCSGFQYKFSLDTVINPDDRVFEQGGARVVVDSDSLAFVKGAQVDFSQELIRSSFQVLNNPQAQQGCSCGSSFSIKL
UniProt Q9H9V9: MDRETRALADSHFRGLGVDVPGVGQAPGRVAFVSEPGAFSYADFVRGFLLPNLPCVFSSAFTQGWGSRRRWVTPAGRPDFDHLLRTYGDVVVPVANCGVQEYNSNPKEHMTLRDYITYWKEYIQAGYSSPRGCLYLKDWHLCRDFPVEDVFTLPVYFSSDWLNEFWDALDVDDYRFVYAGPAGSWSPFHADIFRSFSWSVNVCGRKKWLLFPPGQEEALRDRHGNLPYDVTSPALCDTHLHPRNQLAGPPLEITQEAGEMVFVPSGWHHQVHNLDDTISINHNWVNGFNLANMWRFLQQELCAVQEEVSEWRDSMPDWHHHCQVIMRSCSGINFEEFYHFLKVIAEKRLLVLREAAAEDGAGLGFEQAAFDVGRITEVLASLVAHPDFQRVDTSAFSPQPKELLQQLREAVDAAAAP
UniProt Q9NVX7: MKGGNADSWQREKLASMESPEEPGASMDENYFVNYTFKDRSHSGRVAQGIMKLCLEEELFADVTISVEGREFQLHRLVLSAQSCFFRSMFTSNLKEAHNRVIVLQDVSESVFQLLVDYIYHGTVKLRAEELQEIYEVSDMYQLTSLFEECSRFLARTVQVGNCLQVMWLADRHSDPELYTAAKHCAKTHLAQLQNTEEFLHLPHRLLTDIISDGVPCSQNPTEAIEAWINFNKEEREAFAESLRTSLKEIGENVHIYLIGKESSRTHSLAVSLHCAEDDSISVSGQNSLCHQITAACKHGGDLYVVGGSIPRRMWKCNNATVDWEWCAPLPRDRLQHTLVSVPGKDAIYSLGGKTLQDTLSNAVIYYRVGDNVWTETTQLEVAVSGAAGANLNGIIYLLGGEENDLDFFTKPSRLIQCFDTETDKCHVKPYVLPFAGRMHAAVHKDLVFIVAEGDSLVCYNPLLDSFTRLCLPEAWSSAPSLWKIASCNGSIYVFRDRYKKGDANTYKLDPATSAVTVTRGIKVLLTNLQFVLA
UniProt Q9Y4C1: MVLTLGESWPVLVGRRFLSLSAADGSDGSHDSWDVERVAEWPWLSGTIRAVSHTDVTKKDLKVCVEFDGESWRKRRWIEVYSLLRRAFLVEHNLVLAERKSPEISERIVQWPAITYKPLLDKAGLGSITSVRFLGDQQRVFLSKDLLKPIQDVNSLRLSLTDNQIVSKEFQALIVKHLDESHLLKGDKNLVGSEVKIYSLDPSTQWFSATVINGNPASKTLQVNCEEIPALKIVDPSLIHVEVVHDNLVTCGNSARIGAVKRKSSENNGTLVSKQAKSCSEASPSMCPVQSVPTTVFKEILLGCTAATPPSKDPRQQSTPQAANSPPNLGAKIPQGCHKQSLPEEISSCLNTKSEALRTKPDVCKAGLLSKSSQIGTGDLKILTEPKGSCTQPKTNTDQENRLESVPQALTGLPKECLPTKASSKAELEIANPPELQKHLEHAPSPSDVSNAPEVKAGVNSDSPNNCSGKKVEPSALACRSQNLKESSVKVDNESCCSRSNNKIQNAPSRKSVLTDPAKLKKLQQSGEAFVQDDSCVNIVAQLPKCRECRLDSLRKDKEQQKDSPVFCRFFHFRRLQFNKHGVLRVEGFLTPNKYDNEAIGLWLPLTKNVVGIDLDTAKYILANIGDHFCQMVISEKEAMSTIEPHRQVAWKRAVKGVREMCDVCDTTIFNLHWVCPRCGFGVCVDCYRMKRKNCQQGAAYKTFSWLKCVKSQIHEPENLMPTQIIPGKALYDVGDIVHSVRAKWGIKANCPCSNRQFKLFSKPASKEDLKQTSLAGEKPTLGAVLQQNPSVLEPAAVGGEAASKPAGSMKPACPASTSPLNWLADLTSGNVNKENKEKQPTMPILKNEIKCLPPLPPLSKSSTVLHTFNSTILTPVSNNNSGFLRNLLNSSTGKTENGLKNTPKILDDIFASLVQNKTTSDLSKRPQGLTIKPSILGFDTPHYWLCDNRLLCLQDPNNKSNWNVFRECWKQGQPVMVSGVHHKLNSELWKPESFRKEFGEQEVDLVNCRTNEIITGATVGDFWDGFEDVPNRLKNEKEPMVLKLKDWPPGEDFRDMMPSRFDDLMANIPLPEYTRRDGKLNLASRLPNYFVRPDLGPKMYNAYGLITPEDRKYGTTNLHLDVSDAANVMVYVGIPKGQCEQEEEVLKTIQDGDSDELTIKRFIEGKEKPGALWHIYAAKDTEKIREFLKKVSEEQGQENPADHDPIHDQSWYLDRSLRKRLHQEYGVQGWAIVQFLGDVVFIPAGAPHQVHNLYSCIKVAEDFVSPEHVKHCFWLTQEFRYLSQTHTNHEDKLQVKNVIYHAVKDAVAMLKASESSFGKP
UniProt Q8WZA9: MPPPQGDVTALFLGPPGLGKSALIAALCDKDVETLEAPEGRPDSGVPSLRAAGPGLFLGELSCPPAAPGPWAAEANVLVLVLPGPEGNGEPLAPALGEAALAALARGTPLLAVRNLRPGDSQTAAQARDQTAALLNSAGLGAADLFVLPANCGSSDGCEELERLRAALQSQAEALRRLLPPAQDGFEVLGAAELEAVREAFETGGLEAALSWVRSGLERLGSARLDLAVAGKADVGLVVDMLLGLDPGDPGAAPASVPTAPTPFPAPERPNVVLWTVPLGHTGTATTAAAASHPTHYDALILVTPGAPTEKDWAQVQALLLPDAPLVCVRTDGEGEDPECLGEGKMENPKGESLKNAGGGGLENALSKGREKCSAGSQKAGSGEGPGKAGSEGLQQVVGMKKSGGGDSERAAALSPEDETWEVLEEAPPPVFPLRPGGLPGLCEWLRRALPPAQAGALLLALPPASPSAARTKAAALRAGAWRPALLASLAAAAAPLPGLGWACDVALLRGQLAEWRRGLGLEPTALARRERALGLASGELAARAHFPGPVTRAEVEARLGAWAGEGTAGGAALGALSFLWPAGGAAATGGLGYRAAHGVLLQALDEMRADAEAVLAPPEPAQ
UniProt Q9H3F6: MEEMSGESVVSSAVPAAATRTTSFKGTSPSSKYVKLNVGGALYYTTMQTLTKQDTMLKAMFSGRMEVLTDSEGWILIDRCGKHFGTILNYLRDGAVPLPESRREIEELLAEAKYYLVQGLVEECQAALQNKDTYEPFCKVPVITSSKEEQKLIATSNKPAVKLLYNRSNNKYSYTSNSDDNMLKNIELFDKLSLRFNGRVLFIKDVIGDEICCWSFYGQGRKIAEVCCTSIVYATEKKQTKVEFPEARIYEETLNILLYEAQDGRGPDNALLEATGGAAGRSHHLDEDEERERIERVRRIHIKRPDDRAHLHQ
UniProt Q8IY47: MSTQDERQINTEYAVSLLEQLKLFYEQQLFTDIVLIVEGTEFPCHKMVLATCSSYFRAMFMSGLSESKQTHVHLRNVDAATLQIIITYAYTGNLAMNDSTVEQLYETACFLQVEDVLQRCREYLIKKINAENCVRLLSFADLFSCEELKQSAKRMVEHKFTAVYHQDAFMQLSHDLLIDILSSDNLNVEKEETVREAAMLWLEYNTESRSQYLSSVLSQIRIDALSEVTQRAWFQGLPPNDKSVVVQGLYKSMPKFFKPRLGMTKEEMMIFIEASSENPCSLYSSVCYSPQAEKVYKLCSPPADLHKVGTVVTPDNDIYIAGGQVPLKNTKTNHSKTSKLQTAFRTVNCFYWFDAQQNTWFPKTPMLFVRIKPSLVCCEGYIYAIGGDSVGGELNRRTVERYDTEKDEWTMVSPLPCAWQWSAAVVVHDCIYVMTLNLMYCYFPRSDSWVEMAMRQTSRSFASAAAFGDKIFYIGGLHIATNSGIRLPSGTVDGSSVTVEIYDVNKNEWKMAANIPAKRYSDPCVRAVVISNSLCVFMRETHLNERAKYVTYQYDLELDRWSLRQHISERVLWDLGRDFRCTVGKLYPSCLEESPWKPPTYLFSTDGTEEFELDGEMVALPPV
UniProt Q15811: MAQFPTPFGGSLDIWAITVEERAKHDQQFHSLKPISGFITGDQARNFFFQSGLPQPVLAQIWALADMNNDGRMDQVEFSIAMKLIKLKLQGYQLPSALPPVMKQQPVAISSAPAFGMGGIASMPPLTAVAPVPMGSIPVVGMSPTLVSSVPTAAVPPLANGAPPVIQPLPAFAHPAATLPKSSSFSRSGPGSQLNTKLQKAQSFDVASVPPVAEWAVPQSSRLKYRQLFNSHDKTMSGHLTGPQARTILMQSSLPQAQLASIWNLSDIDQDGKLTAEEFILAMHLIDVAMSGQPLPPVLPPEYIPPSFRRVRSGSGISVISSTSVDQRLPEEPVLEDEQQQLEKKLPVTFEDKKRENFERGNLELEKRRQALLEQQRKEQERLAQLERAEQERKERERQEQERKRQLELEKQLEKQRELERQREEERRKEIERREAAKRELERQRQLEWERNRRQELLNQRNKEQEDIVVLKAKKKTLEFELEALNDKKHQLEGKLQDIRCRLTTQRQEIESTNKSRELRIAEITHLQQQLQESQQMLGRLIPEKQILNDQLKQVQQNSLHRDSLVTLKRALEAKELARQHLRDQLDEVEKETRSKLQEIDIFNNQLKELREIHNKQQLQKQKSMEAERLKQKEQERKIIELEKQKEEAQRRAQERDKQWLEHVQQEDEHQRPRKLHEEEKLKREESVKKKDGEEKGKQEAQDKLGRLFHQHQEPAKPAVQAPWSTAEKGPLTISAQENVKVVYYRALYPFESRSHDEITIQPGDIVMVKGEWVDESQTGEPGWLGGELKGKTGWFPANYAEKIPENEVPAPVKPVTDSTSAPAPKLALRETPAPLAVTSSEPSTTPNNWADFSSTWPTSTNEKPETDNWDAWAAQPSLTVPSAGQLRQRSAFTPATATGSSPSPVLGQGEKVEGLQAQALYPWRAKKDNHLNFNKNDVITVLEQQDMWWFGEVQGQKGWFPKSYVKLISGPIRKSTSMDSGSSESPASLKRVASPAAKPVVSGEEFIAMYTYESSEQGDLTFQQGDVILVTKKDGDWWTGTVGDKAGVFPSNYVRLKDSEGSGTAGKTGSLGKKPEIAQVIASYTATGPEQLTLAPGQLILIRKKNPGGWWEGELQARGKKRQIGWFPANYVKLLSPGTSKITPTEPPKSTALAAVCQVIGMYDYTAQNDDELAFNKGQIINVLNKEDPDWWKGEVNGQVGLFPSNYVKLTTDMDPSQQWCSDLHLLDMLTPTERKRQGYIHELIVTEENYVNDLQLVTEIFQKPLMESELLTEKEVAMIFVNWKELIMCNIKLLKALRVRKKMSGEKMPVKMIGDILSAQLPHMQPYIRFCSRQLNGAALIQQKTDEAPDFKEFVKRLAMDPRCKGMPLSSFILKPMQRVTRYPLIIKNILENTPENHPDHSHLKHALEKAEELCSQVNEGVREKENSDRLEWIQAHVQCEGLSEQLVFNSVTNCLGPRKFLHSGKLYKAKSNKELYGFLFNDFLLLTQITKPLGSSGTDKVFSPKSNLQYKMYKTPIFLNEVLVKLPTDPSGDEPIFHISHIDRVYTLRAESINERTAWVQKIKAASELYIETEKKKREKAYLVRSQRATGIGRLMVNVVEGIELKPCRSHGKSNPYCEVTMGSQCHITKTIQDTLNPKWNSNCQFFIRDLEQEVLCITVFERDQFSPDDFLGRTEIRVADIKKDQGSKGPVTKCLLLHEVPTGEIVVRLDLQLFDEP

Tests used:
Assay in all cases: log2 fold change, soluble protein after heating vs DMSO (PISA); higher = thermal stabilisation; K562 lysate, 10 uM; active = over 0.2 and 3.5 SD of the protein, either way, in both replicates (recomputed)
[1] = compound: NCC(=O)Nc1ccc(-n2nc(C(F)(F)F)cc2-c2ccc3c(ccc4ccccc43)c2)cc1
Outline: (§1)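 Pellets of K562 cells were dounce-homogenised in PBS pH 7.4 with 1 mM MgCl2, and the crude extract was held at 1 mg/mL protein for a 30 min treatment with 10 μM compound. Aliquots were heated for 3 min over 48°C-58°C and pooled before NP-40 was added to 0.5% at 4°C. The supernatant from 21,000xg for 90 min was quantified by TMTpro 16plex LC-MS/MS with channel sums equalised. Values are reported from duplicates as log-two fold change in thermal stability relative to solvent controls.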

vorinostat = compound: O=C(CCCCCCC(=O)Nc1ccccc1)NO [vorinostat]
Outline: as §1

silmitasertib = compound: O=C(O)c1ccc2c(c1)nc(Nc1cccc(Cl)c1)c1ccncc12 [silmitasertib]
Outline: as §1

[2] = compound: O=C1NC(=O)C(c2cnc3ccccn23)=C1c1cn2c3c(cc(F)cc13)CN(C(=O)N1CCCCC1)CC2
Outline: as §1

entospletinib = compound: c1cn2cc(-c3ccc4cn[nH]c4c3)nc(Nc3ccc(N4CCOCC4)cc3)c2n1 [entospletinib]
Outline: as §1

Row | Target | log2 fold change [1] | log2 fold change (vorinostat) | log2 fold change (silmitasertib) | log2 fold change [2] | log2 fold change (entospletinib)
1 | KDELR2 (UniProt P33947) | inactive: 0.142 | inactive: -0.219 | inactive: -0.084 | inactive: 0.058 | inactive: 0.073
2 | ISOC1 (UniProt Q96CN7) | inactive: -0.029 | inactive: 0.15 | inactive: -0.065 | inactive: 0.055 | inactive: 0.024
3 | ITPK1 (UniProt Q13572) | inactive: -0.019 | inactive: 0.055 | inactive: -0.081 | inactive: 0.028 | inactive: 0.037
4 | IVNS1ABP (UniProt Q9Y6Y0) | inactive: -0.016 | inactive: -0.049 | inactive: 0.011 | inactive: -0.048 | inactive: 0.068
5 | INTS2 (UniProt Q9H0H0) | inactive: -0.054 | inactive: -0.157 | inactive: 0.068 | inactive: -0.035 | inactive: 0.073
6 | INTS7 (UniProt Q9NVH2) | inactive: 0.017 | inactive: -0.149 | inactive: -0.011 | inactive: 0.189 | inactive: 0.03
7 | ISCA2 (UniProt Q86U28) | inactive: -0.098 | inactive: 0.073 | inactive: -0.053 | inactive: 0.036 | inactive: -0.003
8 | IQSEC2 (UniProt Q5JU85) | inactive: -0.031 | inactive: -0.228 | inactive: -0.007 | inactive: 0.008 | inactive: -0.108
9 | KBTBD8 (UniProt Q8NFY9) | inactive: 0.019 | inactive: -0.152 | inactive: -0.019 | inactive: -0.029 | inactive: -0.034
10 | ITPKA (UniProt P23677) | inactive: 0.033 | active: -0.36 | inactive: 0.09 | inactive: -0.101 | inactive: 0.081
11 | JMJD4 (UniProt Q9H9V9) | inactive: -0.056 | inactive: -0.277 | inactive: 0.073 | inactive: -0.017 | inactive: 0.006
12 | ITPA (UniProt Q9BY32) | inactive: 0.037 | inactive: 0.117 | inactive: -0.026 | inactive: 0.027 | inactive: 0.004
13 | KBTBD4 isoform 2 (UniProt Q9NVX7) | inactive: 0.025 | active: -0.311 | inactive: 0.012 | inactive: -0.023 | inactive: -0.012
14 | KDM3A (UniProt Q9Y4C1) | inactive: -0.017 | inactive: -0.147 | inactive: 0.025 | inactive: -0.018 | inactive: 0.001
15 | IRGQ (UniProt Q8WZA9) | inactive: 0.01 | inactive: 0.046 | inactive: 0.006 | inactive: 0.005 | inactive: 0.006
16 | INTS3 (UniProt Q68E01) | inactive: 0.049 | active: -0.244 | inactive: 0.015 | inactive: -0.063 | inactive: 0.009
17 | KCTD10 (UniProt Q9H3F6) | inactive: 0 | inactive: -0.024 | inactive: 0.053 | inactive: 0.06 | inactive: -0.032
18 | KCTD20 (UniProt Q7Z5Y7) | inactive: -0.137 | active: -0.323 | inactive: 0.035 | inactive: 0.053 | inactive: 0.091
19 | ITFG2 (UniProt Q969R8) | inactive: -0.027 | inactive: -0.02 | inactive: 0.025 | inactive: -0.087 | inactive: -0.108
20 | KBTBD2 (UniProt Q8IY47) | inactive: 0.047 | inactive: 0.145 | inactive: -0.039 | inactive: 0.038 | inactive: 0.026
21 | ITSN1 isoform 8 (UniProt Q15811) | inactive: 0.008 | inactive: 0.076 | inactive: -0.021 | inactive: -0.021 | inactive: 0.009
22 | JMJD6 isoform 3 (UniProt Q6NYC1) | inactive: -0.03 | inactive: -0.029 | inactive: 0.037 | inactive: 0.003 | inactive: 0.007
23 | KCT2 (UniProt Q8NC54) | inactive: 0.015 | inactive: 0.157 | inactive: 0.005 | inactive: -0.04 | inactive: -0.026
24 | IPO5 (UniProt H0Y3V4) | inactive: 0.053 | inactive: 0.097 | inactive: -0.186 | – | inactive: 0.042

Single records, from the list above. Values in the order: log2 fold change [1] | log2 fold change (vorinostat) | log2 fold change (silmitasertib) | log2 fold change [2] | log2 fold change (entospletinib)
IPO5 (UniProt H0Y3V4) as listed: inactive: 0.053 | inactive: 0.097 | inactive: -0.186 | – | inactive: 0.042
ITPA (UniProt Q9BY32) as listed: inactive: 0.037 | inactive: 0.117 | inactive: -0.026 | inactive: 0.027 | inactive: 0.004
